Experimental data as given in patent US20130071431A1, “Method for Preserving Polypeptides Using A Sugar and Polyethyleneimine” (Stabilitech Ltd., priority 2008, published 2013).
At least one peptide structure holds a part that was inferred or is arguable (an end, a ring closure or a residue).

Test system: purified rabbit anti-human calcitonin polyclonal antibody
Experiment: ELISA of detectable hCT after freeze-drying and heat challenge
Settings: freeze-dried with excipient of 1.03M sucrose, 0.09M raffinose and 21 nM PEI (Mn 60,000); heat challenge 45° C. for 16 hours

## CC[C@H](C)[C@H](NC(=O)[C@H](C)NC(=O)[C@@H](NC(=O)[C@H](CCC(N)=O)NC(=O)[C@@H]1CCCN1C(=O)[C@H](Cc1ccccc1)NC(=O)[C@@H](NC(=O)[C@H](Cc1c[nH]cn1)NC(=O)[C@H](Cc1ccccc1)NC(=O)[C@H](CCCCN)NC(=O)[C@H](CC(N)=O)NC(=O)[C@H](Cc1ccccc1)NC(=O)[C@H](CC(=O)O)NC(=O)[C@H](CCC(N)=O)NC(=O)[C@@H](NC(=O)[C@H](Cc1ccc(O)cc1)NC(=O)[C@@H](NC(=O)CNC(=O)[C@H](CC(C)C)NC(=O)[C@H](CCSC)NC(=O)[C@@H]1CSSC[C@H](N)C(=O)NCC(=O)N[C@@H](CC(N)=O)C(=O)N[C@@H](CC(C)C)C(=O)N[C@@H](CO)C(=O)N[C@@H]([C@@H](C)O)C(=O)N1)[C@@H](C)O)[C@@H](C)O)[C@@H](C)O)[C@@H](C)O)C(=O)NCC(=O)N[C@H](C(=O)NCC(=O)N[C@@H](C)C(=O)N1CCC[C@H]1C(N)=O)C(C)C [hCT, human calcitonin]
  stabilisation of freeze-dried samples, detectable hCT by ELISA (OD 450 nm): dramatically improved
